Assay results reported in the supplement of paper PMC5949888.
Most values lie at the floor of the assay. Slopes are relative: functional sequences can read slightly below zero.

test system: Saccharomyces cerevisiae PS128 hsf1 delta, HSF1(1-493) fusion; test: growth estimate (transactivation domain function in HSF1 fusion, heat-shock survival) (a.u. (slope of normalised read count over time)); higher = stronger growth at 37°C, i.e. more transactivation activity; conditions: library: random library

| Substance | growth estimate |
| --- | --- |
| PVVEWLAIKQAAGCSGCCAM | < -0.25 |
| PVVGKLAA | < -0.25 |
| PVVKDTSEGRA | < -0.25 |
| PVVLPWHRIAVFAVNWLLVR | < -0.25 |
| PVVLVDYDPSESI | < -0.25 |
| PVVQAAHMCWPFPLGTGSLG | < -0.25 |
| PVWTRHTH | < -0.25 |
| PWANRFEIARTSVLNHPMRF | < -0.25 |
| PWGELLTVYPARHGTAIAKR | < -0.25 |
| PWGLTCF | < -0.25 |
| PWHLYEGEMAPLLAPSEFVC | -0.246 |
| PWIAR | < -0.25 |
| PWILKSVQCVYREK | < -0.25 |
| PWKPHFRSIIKWRNSTIYFN | < -0.25 |
| PWLLARCSAIAPPQGVYLLF | < -0.25 |
| PWNPNARLYGQPEVPVFTAS | < -0.25 |
| PWPL | < -0.25 |
| PWRFEDYSSGRPVRAWR | < -0.25 |
| PWRSARYKRY | < -0.25 |
| PWSDARHPSAAGE | < -0.25 |
| PWT | < -0.25 |
| PWVIALRTSVCLVAALRL | < -0.253 |
| PWVLGRLGSRQHSN | < -0.25 |
| PWVVSRDSFVKIGLTTYPYA | < -0.25 |
| PYCAGVVYDLTLEWAIPCHQ | < -0.25 |

A different layout for part of the listing above.
Substance | growth estimate
PWGLTCF | < -0.25
PWSDARHPSAAGE | < -0.25

Later entries

| Substance | growth estimate |
| --- | --- |
| PYD | < -0.25 |
| PYDGAFFIGRKNLA | < -0.25 |
| PYFTLKLREVSSHVSHALGF | < -0.25 |
| PYHRL | < -0.25 |
| PYLLQSA | < -0.25 |
| PYLSFTGVCQSVGVEARRSG | < -0.25 |
| PYNTSSRSQLVARSGKGMPF | < -0.25 |
| PYQKG | < -0.25 |
| PYRLIEPSL | < -0.25 |
| PYRSVIGDAKGAYLKSVDCT | < -0.25 |
| PYTRGRTRGLPRKKISLHTR | < -0.25 |
| QACSMKTRLHVPD | < -0.25 |
| QAFEVMELGQPRQLTNGFTT | < -0.25 |
| QAFTRVLTVRHRGGTSC | < -0.25 |
| QAG | < -0.25 |
| QAGISSYVDLGFRSVSYCET | < -0.25 |
| QAGRNEVNRTL | < -0.25 |
| QAIFTCTNARSPEPAKGKPS | < -0.25 |
| QALEFRGGAGILLELAAIKG | < -0.25 |
| QARLQN | < -0.25 |
| QASEIEYGGLRG | < -0.25 |
| QATKCGG | < -0.25 |
| QAV | < -0.25 |
| QCACLNVCRRLVNSNRRHR | < -0.25 |
| QCGSGDVRQTVDKPILRK | < -0.25 |

| Substance | growth estimate |
| --- | --- |
| QCKGDAYRGVRATKMNVHSY | < -0.25 |
| QCLSRG | < -0.25 |
| QCRGVTQTGLPIVEFRAIRH | < -0.25 |
| QCRGWLYGHAPLAAQRDPYA | < -0.25 |
| QCRPYVLTIARPHTRLRDAL | < -0.25 |
| QCSRFKSVVL | -0.249 |
| QCVFSNETRYEAR | < -0.25 |
| QCVVKLCATEEACCLG | < -0.25 |
| QCWDFSASPR | < -0.25 |
| QCYVEGALGSDALFMESSMN | -0.082 |
| QDELEFWS | < -0.25 |
| QDFGDTHDAEGPFNSRSNRH | < -0.25 |
| QDGCVLSGIGYDGPLSHILH | < -0.25 |
| QDLDVGSFKHYSYSLFQMRR | < -0.25 |
| QDPGLGHAEKYVPEWPISSG | -0.243 |
| QDPPHPEYF | < -0.25 |
| QDPY | < -0.25 |
| QDRGVHALNCDG | < -0.25 |
| QDVQRRCRT | < -0.25 |
| QDVRMIKLAILRFFLSLRKS | < -0.25 |
| QECP | < -0.25 |
| QEDHAEKCFKSDCGHVCCGV | < -0.25 |
| QEDILVGSITGAWLLIVGYH | < -0.25 |
| QEEFTG | < -0.25 |

Part of the list above, bar-delimited:
Substance | growth estimate
QCKGDAYRGVRATKMNVHSY | < -0.25
QCLSRG | < -0.25
QCRGVTQTGLPIVEFRAIRH | < -0.25
QCRGWLYGHAPLAAQRDPYA | < -0.25
QCSRFKSVVL | -0.249
QCVFSNETRYEAR | < -0.25
QCVVKLCATEEACCLG | < -0.25
QCWDFSASPR | < -0.25
QCYVEGALGSDALFMESSMN | -0.082
QDELEFWS | < -0.25
QDLDVGSFKHYSYSLFQMRR | < -0.25
QDPPHPEYF | < -0.25
QDVRMIKLAILRFFLSLRKS | < -0.25
QECP | < -0.25
QEDHAEKCFKSDCGHVCCGV | < -0.25
QEDILVGSITGAWLLIVGYH | < -0.25
QEEFTG | < -0.25
